Our source for the binding values is US20260209348A1.

Sequences of proteins named here, by UniProt entry; tags and fusion partners are left off. A change or cut given only in a name is not applied to a line headed by its entry.
UniProt Q01974: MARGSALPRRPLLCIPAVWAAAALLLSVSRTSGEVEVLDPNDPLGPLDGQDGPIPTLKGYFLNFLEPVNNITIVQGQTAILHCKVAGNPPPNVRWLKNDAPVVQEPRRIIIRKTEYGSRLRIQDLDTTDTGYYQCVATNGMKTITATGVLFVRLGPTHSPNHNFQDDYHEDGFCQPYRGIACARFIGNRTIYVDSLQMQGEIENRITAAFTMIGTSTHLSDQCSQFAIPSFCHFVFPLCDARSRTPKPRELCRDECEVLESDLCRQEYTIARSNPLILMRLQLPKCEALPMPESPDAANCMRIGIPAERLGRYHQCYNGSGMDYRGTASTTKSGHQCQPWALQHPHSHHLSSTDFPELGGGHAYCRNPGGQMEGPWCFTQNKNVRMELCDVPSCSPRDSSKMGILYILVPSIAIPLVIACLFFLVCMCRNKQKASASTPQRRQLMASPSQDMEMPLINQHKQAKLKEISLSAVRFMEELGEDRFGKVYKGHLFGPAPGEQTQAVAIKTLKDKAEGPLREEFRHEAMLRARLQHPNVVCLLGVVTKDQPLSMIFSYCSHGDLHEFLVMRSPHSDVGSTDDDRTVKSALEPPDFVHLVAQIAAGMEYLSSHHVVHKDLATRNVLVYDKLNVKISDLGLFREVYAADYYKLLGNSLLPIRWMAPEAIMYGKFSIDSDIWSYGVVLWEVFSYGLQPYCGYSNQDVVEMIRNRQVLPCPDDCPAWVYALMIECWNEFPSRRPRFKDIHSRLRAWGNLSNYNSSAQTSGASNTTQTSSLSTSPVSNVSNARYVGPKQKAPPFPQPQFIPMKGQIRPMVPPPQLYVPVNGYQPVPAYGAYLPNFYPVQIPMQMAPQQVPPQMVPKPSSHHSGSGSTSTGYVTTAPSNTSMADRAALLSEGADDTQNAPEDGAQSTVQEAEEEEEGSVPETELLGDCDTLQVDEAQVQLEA

Numbering of substitutions follows the chain as printed. Results are given in words; binding and its absence hold for the method and conditions named. Some binding calls cover weakened binding; strength is not graded here.

In the experiment the target is human ROR2 (human) (UniProt Q01974). The experiment is described as follows: ELISA, scFv clones.

B1: h6E6-022 scFv clone (scFv, V domains shown)
VH: EVQLVESGGGLVKPGGSLRLSCAASGFTFSKYGTSWVRQAPGKGLEWVSTISSGGGYTHYAPSVKGRFTISRDNAKNSLYLQMNSLRAEDTAVYYCARHPRDFSYAMDYWGQGTTVTVSS
VL: EIVMTQSPATLSVSPGERATLSCKASQDVGHYVAWYQQKPGQAPRLLIYWASTRATGIPARFSGSGSGTEFTLTISSLQSEDFAVYYCQQYNIYPWTFGQGTKVEIK
Regarding B1, the binding result is on record as “binds”.

B2: h6E6-039 scFv clone (scFv, V domains shown)
VH: B1 VH with K31N, T34Q, P62D, M107V
VL: B1 VL with A55H
For the molecule B2, the binding entry is “binds”.

B3: h6E6-042 scFv clone (scFv, V domains shown)
VH: B1 VH with K31G, T34L, A61V, P62E, M107S
VL: B1 VL with K24R
As for B3, the binding result was “binds”.

B4: h6E6-035 scFv clone (scFv, V domains shown)
VH: B1 VH with K31S, T34I, P62D, M107H
VL: B1 VL with A55H
Turning to B4, the binding entry was “binds”.

B5: h6E6-045 scFv clone (scFv, V domains shown)
VH: B1 VH with K31G, T34M, A61V, P62Q
VL: B1 VL
Regarding B5, the binding entry is reported as “binds”.

B6: h6E6-023 scFv clone (scFv, V domains shown)
VH: B1 VH with K31S, T34M, M107L
VL: B1 VL with V33L
Take B6: the binding result is recorded as “binds”.

B7: h6E6-058 scFv clone (scFv, V domains shown)
VH: B1 VH with K31V, T34L, H59Q, M107F
VL: B1 VL with V33L
With B7, the binding result is listed as “binds”.

B8: h6E6-026 scFv clone (scFv, V domains shown)
VH: B1 VH with K31R, T34M, P62A
VL: B1 VL with A55H
Turning to B8, the binding entry is given as “binds”.

B9: h6E6-025 scFv clone (scFv, V domains shown)
VH: B1 VH with K31H, T34H, A61V, P62E
VL: B1 VL with K24R
Take B9: the binding entry was “binds”.

B10: h6E6-064 scFv clone (scFv, V domains shown)
VH: B1 VH with K31H, T34I, T50S, P62E
VL: B1 VL with K24R
On to B10, for which the binding result was “binds”.

B11: h6E6-044 scFv clone (scFv, V domains shown)
VH: B1 VH with K31T, T34S, P62Q, M107L
VL: B1 VL with A55H
Consider B11, for which the binding entry is “binds”.

B12: h6E6-057 scFv clone (scFv, V domains shown)
VH: B1 VH with K31H, T34V, A61V, P62A, M107L
VL: B1 VL with T97A
Regarding B12, the binding entry is listed as “binds”.

B13: h6E6-040 scFv clone (scFv, V domains shown)
VH: B1 VH with K31S, T34H, M107H
VL: B1 VL with K24R
Take B13: the binding result was “binds”.

B14: h6E6-032 scFv clone (scFv, V domains shown)
VH: B1 VH with K31N, P62E
VL: B1 VL with V33L
With B14, the binding result was “binds”.

B15: h6E6-046 scFv clone (scFv, V domains shown)
VH: B1 VH with K31R, T34I, P62T
VL: B1 VL with A55H
With B15, the binding result is “binds”.

B16: h6E6-051 scFv clone (scFv, V domains shown)
VH: B1 VH with K31N, T34M, A61V, P62D, M107L
VL: B1 VL
In the case of B16, the binding result is “binds”.

B17: h6E6-041 scFv clone (scFv, V domains shown)
VH: B1 VH with K31G, T34V, M107Q
VL: B1 VL
Regarding B17, the binding result was “binds”.

B18: h6E6-054 scFv clone (scFv, V domains shown)
VH: B1 VH with K31N, T34V, A61V, P62T, M107L
VL: B1 VL
Take B18: the binding entry is recorded as “binds”.

B19: h6E6-043 scFv clone (scFv, V domains shown)
VH: B1 VH with K31S, P62T
VL: B1 VL with V33L
Take B19: the binding entry was “binds”.

B20: h6E6-062 scFv clone (scFv, V domains shown)
VH: B1 VH with K31S, T34H, H59Y, P62E, M107H
VL: B1 VL with V33L
As for B20, the binding result is “binds”.

B21: h6E6-038 scFv clone (scFv, V domains shown)
VH: B1 VH with K31R, T34M, L86P, M107Q
VL: B1 VL with V33L, A55H
For B21, the binding entry is on record as “binds”.

B22: h6E6-030 scFv clone (scFv, V domains shown)
VH: B1 VH with K31S, T34M, P62A
VL: B1 VL with V33L
As to B22, the binding entry is on record as “binds”.

B23: h6E6-048 scFv clone (scFv, V domains shown)
VH: B1 VH with K31N, T34V, A61V, P62Q, M107L
VL: B1 VL with A55H
On to B23, for which the binding entry was “binds”.

B24: h6E6-053 scFv clone (scFv, V domains shown)
VH: B1 VH with T34V, A61V, P62D, M107H
VL: B1 VL with A55H, Q79K
Regarding B24, the binding entry is recorded as “binds”.

B25: h6E6-061 scFv clone (scFv, V domains shown)
VH: B1 VH with K31N, T34Q, M107F
VL: B1 VL with K24R
Consider B25, for which the binding result is on record as “binds”.

B26: h6E6-056 scFv clone (scFv, V domains shown)
VH: B1 VH with M107Q
VL: B1 VL with K24R
For the molecule B26, the binding entry is “binds”.

B27: h6E6-028 scFv clone (scFv, V domains shown)
VH: B1 VH with K31P, T34M, A61V, P62Q, M107L
VL: B1 VL
Consider B27, for which the binding entry is given as “binds”.

B28: h6E6-036 scFv clone (scFv, V domains shown)
VH: B1 VH with K31A, T34H, P62D, M107Q
VL: B1 VL with V33L, A55H
Turning to B28, the binding result was “binds”.

B29: h6E6-065 scFv clone (scFv, V domains shown)
VH: B1 VH with K31G, T34M, A61V, P62D, M107L
VL: B1 VL with V33L
For B29, the binding entry is listed as “binds”.

B30: h6E6-031 scFv clone (scFv, V domains shown)
VH: B1 VH with K31S, T34M, P62E, A75D, M107I
VL: B1 VL with K24R, A55H
B30: the binding entry is recorded as “binds”.

B31: h6E6-060 scFv clone (scFv, V domains shown)
VH: B1 VH with K31R, T34L, P62A
VL: B1 VL with K24R, V33L
Consider B31, for which the binding entry was “binds”.

B32: h6E6-050 scFv clone (scFv, V domains shown)
VH: B1 VH with K31R, T34M, A61V, P62D, M107H
VL: B1 VL with V33L
As for B32, the binding entry is “binds”.

B33: h6E6-055 scFv clone (scFv, V domains shown)
VH: B1 VH with K31Q, T34H, P62E, M107Q
VL: B1 VL with V33L
For the molecule B33, the binding entry is “binds”.

B34: h6E6-029 scFv clone (scFv, V domains shown)
VH: B1 VH with K31H, T34V, P62Q, M107Q
VL: B1 VL with A55H
Turning to B34, the binding result is given as “binds”.

B35: h6E6-024 scFv clone (scFv, V domains shown)
VH: B1 VH with K31E, T34M, A61V, P62E
VL: B1 VL with K24R
For B35, the binding entry is listed as “binds”.

B36: h6E6-034 scFv clone (scFv, V domains shown)
VH: B1 VH with K31S, T34M, A61V, P62H
VL: B1 VL with Q6P
On to B36, for which the binding entry is given as “binds”.

B37: h6E6-059 scFv clone (scFv, V domains shown)
VH: B1 VH with K31G, T34L, M107F
VL: B1 VL with V33L
As for B37, the binding entry is “binds”.

B38: h6E6-033 scFv clone (scFv, V domains shown)
VH: B1 VH with K31T, T34M, A61V, P62T
VL: B1 VL with A55H
On to B38, for which the binding result is listed as “binds”.

B39: h6E6-027 scFv clone (scFv, V domains shown)
VH: B1 VH with K31T, T34L, A61V, P62D
VL: B1 VL
In the case of B39, the binding result is listed as “binds”.

B40: h6E6-047 scFv clone (scFv, V domains shown)
VH: B1 VH with T34M, L45P, P62T, M107L
VL: B1 VL with K24R
Consider B40, for which the binding result is recorded as “binds”.

B41: h6E6-052 scFv clone (scFv, V domains shown)
VH: B1 VH with K31H, P62E, M107I
VL: B1 VL with V33L
As for B41, the binding result is reported as “binds”.

B42: h6E6-049 scFv clone (scFv, V domains shown)
VH: B1 VH with K31N, T34M, T50S, P62E
VL: B1 VL
Consider B42, for which the binding entry is reported as “binds”.

B43: h6E6-063 scFv clone (scFv, V domains shown)
VH: B1 VH with K31A, H59Y, P62A, M107I
VL: B1 VL with K24R, V33L
On to B43, for which the binding entry was “binds”.

B44: h6E6-066 scFv clone (scFv, V domains shown)
VH: B1 VH with K31A, T34S, M107H
VL: B1 VL with A55H
B44: the binding result is recorded as “binds”.

B45: h6E6-037 scFv clone (scFv, V domains shown)
VH: B1 VH with K31A, T34M, P62T, M107Q
VL: B1 VL with V33L
On to B45, for which the binding entry is “binds”.
